Measurements reported in PubChem BioAssay AID504786 (Drosophila RNAi Screening Center, 2011)

Screen: 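Fly genes required for HIF-dependent transcription when hypoxia is mimicked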 (primary screen)
System: Drosophila S2 cells with a stable HIF luciferase reporter
Knock-down reagent: long dsRNA against Drosophila genes, about 0.2 µg dsRNA per well of a 384-well plate
Time to read-out: three days of knock-down, then 20 h of DFO before reading
Conditions: desferrioxamine (DFO) at 100 µM, an iron chelator that mimics hypoxia, for 20 h
Detection: 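HIF reporter luminescence in cells given 100 µM DFO for 20 h, using the mouse ldh-a hypoxia-response element, scored as per-plate z-scores; higher means greater loss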
Scale: z-score: higher = stronger loss of HIF reporter signal
In all, the deposit lists about 21,000 reagents; shown is an unselected part of those with a known target gene and a result. 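Primary screen; positive scores mean lost reporter signal, so the sign may be inverted from the usual convention.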 The numbers tell different reagents against one gene apart. Names joined by + are all predicted targets of the reagent.

no.	target gene	reagent	z-score, replicate 1	z-score, replicate 2	z-score, replicate 3	z-score, replicate 4
1	CG14453	1	-0.4	-0.3	0	-0.4
2	Obp83b	1	0.1	-0.2		
3	CG12730	1	-0.1	-0.2		
4	DEF8	1	-0.2	-0.3		
5	Pfdn4	1	-0.2	-0.8		
6	CG16888	1	0	-0.1		
7	APC10	1	-0.3	-0.4		
8	CG9215	1	-0.2	-1		
9	Tsp47F	1	0.9	1.8		
10	CG34278	1	0	0.1		
11	Wee1	1	-0.4	-1		
12	tbrd-3	1	-0.4	-0.5		
13	Cadps	1	-0.2	-0.1		
14	CG3726	1	-0.2	-0.2	1.7	0.4
15	mRpS30	1	0.9	0.8		
16	Exn	1	-0.2	0.9		
17	Exn	2	-0.2	-0.1		
18	CG14327	1	-0.5	0		
19	CG44251	1	-0.3	0		
20	CG11396	1	-0.1	0		
21	ND-PDSW	1	-0.3	-0.4		
22	CG15673	1	0	-0.5		
23	RpS15	1	6.9	4.4		
24	CG4269	1	1.7	-0.3		
25	Fili	1	0.4	0.2		
26	Fili	2	-0.3	-0.2		
27	Fili	3	-0.3	-0.6		
28	cl	1	-0.3	-0.6		
29	QIL1	1	1	0.4		
30	GstE4	1	-0.3	-0.6		
31	Boh1	1	-0.4	-0.1		
32	CG31686 (retired record)	1	-0.1	0.7		
33	nmdyn-D6	1	-0.2	-1		
34	CG13847	1	1.8	1.8		
35	Pxd	1	-0.4	1		
36	CG14829	1	0	0.6		
37	Or59a	1	-0.2	-0.3		
38	Df31	1	-0.3	-0.2	-0.9	-0.3
39	Rich	1	-0.2	-0.2		
40	RanBP3	1	-0.1	0.9		
41	CG6961 + CG18259	1	-0.3	-0.4		
42	CG6961 + CG18259	2	-0.2	-0.5		
43	GNBP1	1	-0.3	-0.7		
44	CG13474	1	0	-0.8		
45	rux	1	-0.4	-0.4		
46	mEFTu1	1	0.1	-0.1		
47	Mst98Cb	1	-0.5	-0.4	-0.2	-0.3
48	CG14615	1	-0.2	-0.3		
49	CG7017	1	-0.1	0		
50	CG45105	1	0.8	0.1		
51	CG45105	2	1.1	1		
52	CG7084	1	-0.3	-0.5		
53	CG10560	1	0.2	0.7		
54	CG1910	1	0.7	1.3		
55	Or49a	1	-0.3	-0.3		
56	CG13670	1	-0.2	-0.1		

Reprinted from above, 7 entries:
no.	target gene	reagent	z-score, replicate 1	z-score, replicate 2	z-score, replicate 3	z-score, replicate 4
45	rux	1	-0.4	-0.4		
46	mEFTu1	1	0.1	-0.1		
47	Mst98Cb	1	-0.5	-0.4	-0.2	-0.3
48	CG14615	1	-0.2	-0.3		
49	CG7017	1	-0.1	0		
50	CG45105	1	0.8	0.1		
51	CG45105	2	1.1	1		
